From article PMC8573169, “Structural basis for the inhibition of the Bacillus subtilis c-di-AMP cyclase CdaA by the phosphoglucomutase GlmM” (The Journal of Biological Chemistry, 2021) come the findings set out here.

Sequences of proteins named here, by UniProt entry; tags and fusion partners are left off. A change or cut given only in a name is not applied to a line headed by its entry.
UniProt O34824: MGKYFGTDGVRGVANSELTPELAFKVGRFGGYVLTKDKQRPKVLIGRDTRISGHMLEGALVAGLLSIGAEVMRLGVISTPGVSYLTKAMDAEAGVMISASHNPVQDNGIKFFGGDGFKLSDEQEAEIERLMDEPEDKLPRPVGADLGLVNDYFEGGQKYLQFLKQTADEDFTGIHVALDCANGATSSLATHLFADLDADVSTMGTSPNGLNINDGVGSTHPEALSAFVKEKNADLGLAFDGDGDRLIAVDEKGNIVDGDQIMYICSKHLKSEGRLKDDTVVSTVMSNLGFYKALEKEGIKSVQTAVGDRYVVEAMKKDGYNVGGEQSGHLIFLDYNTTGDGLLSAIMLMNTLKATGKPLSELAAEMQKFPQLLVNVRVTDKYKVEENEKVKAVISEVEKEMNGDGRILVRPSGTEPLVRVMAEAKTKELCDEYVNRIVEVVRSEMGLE

The assay concerns the target T1, B. subtilis CdaA catalytic domain (CdaACD), His-tagged (B. subtilis) (UniProt Q45589).
T1 sequence: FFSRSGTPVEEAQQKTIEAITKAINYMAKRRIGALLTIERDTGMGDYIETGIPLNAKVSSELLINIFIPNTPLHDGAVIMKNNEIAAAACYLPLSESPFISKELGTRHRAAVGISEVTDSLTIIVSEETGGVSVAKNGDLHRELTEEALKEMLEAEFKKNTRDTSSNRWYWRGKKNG
The experiment in a line: SEC; lysates of the two E. coli strains mixed after the French press step, Ni-NTA affinity chromatography (both proteins His-tagged), then preparative Superdex 200 HiLoad 16/60 in 30 mM Tris pH 7.5, 150 mM NaCl; peak fractions on SDS-PAGE with Coomassie staining. (In general: Size exclusion chromatography separates by hydrodynamic size, large species first.)

No constants are given. Whether binding was seen depends on the method and setting. Binding can be weak; no strength is given. Sequences can lack the tags named with a protein.

Take “B. subtilis GlmM D195A alanine substitution variant, His-tagged (from UniProt O34824) (enzyme)”: the binding entry is “binds”.
